These are yes or no findings as the source states them, for the method shown. In cells and extracts the contact can be indirect. Some results given as binding are weak or reduced against the parent protein; the word gives no strength. Tags and fused reporters may be left off the sequences shown.
Key:
[1] = biological target: myosin heavy-chain 9 (MYH9) protein (human) (UniProt P35579); assay: Flag immunoprecipitation (pulldown) and LC-MS
[2] = biological target: myosin heavy-chain 9 (MYH9) protein (human) (UniProt P35579); assay: Flag immunoprecipitation (pulldown) and LC-MS; heading of the results section
[3] = biological target: myosin heavy-chain 9 (MYH9) protein (human) (UniProt P35579); assay: Flag immunoprecipitation from HEK293T cells overexpressing Flag-APE2, LC-MS proteomics

By UniProt entry, the sequences of proteins in these tests, tags left out. Residues count along the entry.
UniProt P35579, residues 2-1960: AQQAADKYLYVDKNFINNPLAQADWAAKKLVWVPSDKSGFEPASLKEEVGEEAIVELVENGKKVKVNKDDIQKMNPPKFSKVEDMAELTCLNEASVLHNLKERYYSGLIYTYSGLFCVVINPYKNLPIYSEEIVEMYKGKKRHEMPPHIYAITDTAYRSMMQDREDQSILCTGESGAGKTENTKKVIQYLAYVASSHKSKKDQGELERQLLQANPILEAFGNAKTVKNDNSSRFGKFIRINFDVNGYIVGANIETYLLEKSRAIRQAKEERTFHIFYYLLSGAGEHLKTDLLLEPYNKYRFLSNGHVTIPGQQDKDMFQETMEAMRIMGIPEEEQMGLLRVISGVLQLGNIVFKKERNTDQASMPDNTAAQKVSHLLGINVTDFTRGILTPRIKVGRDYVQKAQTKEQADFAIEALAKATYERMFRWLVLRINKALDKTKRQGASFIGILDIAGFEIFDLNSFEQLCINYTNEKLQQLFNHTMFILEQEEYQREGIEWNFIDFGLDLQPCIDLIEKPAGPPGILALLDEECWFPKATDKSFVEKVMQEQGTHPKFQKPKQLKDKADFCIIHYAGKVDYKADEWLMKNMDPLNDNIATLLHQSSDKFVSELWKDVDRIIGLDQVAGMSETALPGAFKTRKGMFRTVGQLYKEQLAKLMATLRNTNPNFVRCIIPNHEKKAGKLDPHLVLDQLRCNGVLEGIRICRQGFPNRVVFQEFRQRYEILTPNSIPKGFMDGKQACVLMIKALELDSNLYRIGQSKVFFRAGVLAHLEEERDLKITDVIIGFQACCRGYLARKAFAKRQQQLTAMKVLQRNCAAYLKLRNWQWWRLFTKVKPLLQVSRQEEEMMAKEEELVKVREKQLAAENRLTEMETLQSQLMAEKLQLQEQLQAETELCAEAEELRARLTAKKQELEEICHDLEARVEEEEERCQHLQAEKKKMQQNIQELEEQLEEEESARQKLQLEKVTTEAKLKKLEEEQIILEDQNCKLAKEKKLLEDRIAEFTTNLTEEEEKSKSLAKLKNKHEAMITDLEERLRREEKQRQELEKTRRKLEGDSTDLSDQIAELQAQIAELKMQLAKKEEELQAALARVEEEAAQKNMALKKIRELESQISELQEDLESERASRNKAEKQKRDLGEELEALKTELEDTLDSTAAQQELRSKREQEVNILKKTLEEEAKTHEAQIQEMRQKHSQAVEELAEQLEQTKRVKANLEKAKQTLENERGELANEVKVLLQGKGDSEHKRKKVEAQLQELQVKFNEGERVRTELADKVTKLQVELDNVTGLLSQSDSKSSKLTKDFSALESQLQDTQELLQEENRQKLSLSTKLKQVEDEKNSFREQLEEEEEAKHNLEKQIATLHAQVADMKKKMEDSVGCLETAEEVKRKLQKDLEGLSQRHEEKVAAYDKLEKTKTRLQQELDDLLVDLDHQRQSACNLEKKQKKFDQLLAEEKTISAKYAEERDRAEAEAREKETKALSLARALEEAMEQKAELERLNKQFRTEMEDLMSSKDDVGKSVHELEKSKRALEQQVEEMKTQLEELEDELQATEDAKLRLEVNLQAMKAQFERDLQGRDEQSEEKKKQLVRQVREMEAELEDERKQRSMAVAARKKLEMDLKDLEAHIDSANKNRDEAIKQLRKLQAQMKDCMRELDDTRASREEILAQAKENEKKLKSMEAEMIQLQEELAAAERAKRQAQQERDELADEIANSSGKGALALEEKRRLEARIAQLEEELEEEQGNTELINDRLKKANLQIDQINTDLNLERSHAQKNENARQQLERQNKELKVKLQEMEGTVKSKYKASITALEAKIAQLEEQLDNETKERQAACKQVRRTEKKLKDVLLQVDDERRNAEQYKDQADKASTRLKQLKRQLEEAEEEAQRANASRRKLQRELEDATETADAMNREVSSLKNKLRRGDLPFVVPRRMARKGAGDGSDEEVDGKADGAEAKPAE

Measured: binding

B1: Flag-APE2 (3FLAG-tagged human apurinic/apyrimidinic endonuclease 2, from PMEV-3FLAG-hAPE2 plasmid, overexpressed in HEK293T cells) (enzyme, UniProt Q9UBZ4 1-518, looked up, not shown: small tags and cut ends)
chain: MLRVVSWNINGIRRPLQGVANQEPSNCAAVAVGRILDELDADIVCLQETKVTRDALTEPLAIVEGYNSYFSFSRNRSGYSGVATFCKDNATPVAAEEGLSGLFATQNGDVGCYGNMDEFTQEELRALDSEGRALLTQHKIRTWEGKEKTLTLINVYCPHADPGRPERLVFKMRFYRLLQIRAEALLAAGSHVIILGDLNTAHRPIDHWDAVNLECFEEDPGRKWMDSLLSNLGCQSASHVGPFIDSYRCFQPKQEGAFTCWSAVTGARHLNYGSRLDYVLGDRTLVIDTFQASFLLPEVMGSDHCPVGAVLSVSSVPAKQCPPLCTRFLPEFAGTQLKILRFLVPLEQSPVLEQSTLQHNNQTRVQTCQNKAQVRSTRPQPSQVGSSRGQKNLKSYFQPSPSCPQASPDIELPSLPLMSALMTPKTPEEKAVAKVVKGQAKTSEAKDEKELRTSFWKSVLAGPLRTPLCGGHREPCVMRTVKKPGPNLGRRFYMCARPRGPPTDPSSRCNFFLWSRPS
binds: all assays above
